# Results from one PubChem assay

Data taken from PubChem BioAssay AID1345084, deposited by NCATS (2018).

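A panel of named gynecologic cancer cell lines (ovarian and cervical) is scored for viability by ATP-dependent luminescence after 48 hours of compound exposure.
Each compound was tested at five concentrations, including 0.46, 2.3 and 57.5 µM as the top dose.
The number is the fitted AC50 potency, and a lower value means stronger cell killing.
Calls follow an activity score built from curve class and fitted AC50: 40 to 100 is active, 1 to 39 is inconclusive, and 0 is inactive.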

Values are in µM.
All entries here are filed as inconclusive.
These entries are mostly ones the record files as inconclusive; other results of the assay are not listed here.
A potency from a partial, single-point or poor curve is only a rough figure.
The first word of each remark tells which way the curve ran; it can be opposite to the aim of the assay.
Activity scores are not listed here.

| # | compound | tested on / at | fitted potency (µM) | curve |
|---|---|---|---|---|
| 1 | `CC(=O)O[C@]1(C(C)=O)CC[C@H]2[C@@H]3C=C(Cl)C4=CC(=O)[C@@H]5C[C@@H]5[C@]4(C)[C@H]3CC[C@@]21C` | HeLa | 39.81 | cytotoxic, single point |
| 2 | `Oc1ccc2c3c1O[C@H]1c4[nH]c5c(N=C=S)cccc5c4C[C@@]4(O)[C@@H](C2)N(CC2CC2)CC[C@]314` | JEG-3 | 15.85 | rising, partial curve, poor fit |
| 3 | `Cc1c(F)cc(C(=O)NC2CC2)cc1-c1c(F)cn2c(C(C)(C)C)nnc2c1F` | CASKI | 39.81 | cytotoxic, single point |
| 4 | `Nc1ccc(N=Nc2ccccc2)cc1` | Es-2 | 35.48 | cytotoxic, partial curve, poor fit |
| 5 | `Nc1ccc(N=Nc2ccccc2)cc1` | C33A | 3.981 | cytotoxic, full curve, poor fit |
| 6 | `Nc1ccc(N=Nc2ccccc2)cc1` | HeLa | 70.79 | cytotoxic, single point |
| 7 | `Nc1ccc(N=Nc2ccccc2)cc1` | CASKI | 35.48 | cytotoxic, single point |
| 8 | `Nc1ccc(N=Nc2ccccc2)cc1` | Hek293T; control line for the selectivity index | 39.81 | cytotoxic, partial curve, poor fit |
| 9 | `Nc1ccc(N=Nc2ccccc2)cc1` | JEG-3 | 39.81 | cytotoxic, single point |
| 10 | `COc1cc2ncnc(Nc3ccc(F)c(Cl)c3)c2cc1NC(=O)/C=C/CN1CCCCC1` | Es-2 | 39.81 | cytotoxic, single point |
| 11 | `COc1cc2ncnc(Nc3ccc(F)c(Cl)c3)c2cc1NC(=O)/C=C/CN1CCCCC1` | C33A | 25.12 | cytotoxic, single point |
| 12 | `COc1cc2ncnc(Nc3ccc(F)c(Cl)c3)c2cc1NC(=O)/C=C/CN1CCCCC1` | Hek293T; control line for the selectivity index | 39.81 | cytotoxic, single point |
| 13 | `COc1cc2ncnc(Nc3ccc(F)c(Cl)c3)c2cc1NC(=O)/C=C/CN1CCCCC1` | CASKI | 31.62 | cytotoxic, single point |
| 14 | `COc1cc2ncnc(Nc3ccc(F)c(Cl)c3)c2cc1NC(=O)/C=C/CN1CCCCC1` | HeLa | 39.81 | cytotoxic, single point |
| 15 | `COc1cc2ncnc(Nc3ccc(F)c(Cl)c3)c2cc1NC(=O)/C=C/CN1CCCCC1` | Tov-21-G | 17.78 | cytotoxic, partial curve, poor fit |
| 16 | `COc1cc2ncnc(Nc3ccc(F)c(Cl)c3)c2cc1NC(=O)/C=C/CN1CCCCC1` | JEG-3 | 39.81 | cytotoxic, single point |
| 17 | `COc1cc2ncnc(Nc3ccc(F)c(Cl)c3)c2cc1NC(=O)/C=C/CN1CCCCC1` | PA-1 | 28.18 | cytotoxic, single point |
| 18 | `Clc1ccc(Nc2nnc(Cc3ccncc3)c3ccccc23)cc1` | HeLa | 17.78 | cytotoxic, single point |
| 19 | `O=C(O)C(Cl)Cl` | Hek293T; control line for the selectivity index | 7.943 | rising, single point |
| 20 | `COc1ccc(CN2CCNCC2)c(OC)c1OC` | CAOV3 | 39.81 | cytotoxic, single point |
| 21 | `COC1CCCC(C)OC(=O)Cc2cc(O)cc(O)c2C(=O)C1` (centres undefined) | C33A | 12.59 | cytotoxic, single point |
| 22 | `COC1CCCC(C)OC(=O)Cc2cc(O)cc(O)c2C(=O)C1` (centres undefined) | HeLa | 15.85 | cytotoxic, single point |
| 23 | `COC1CCCC(C)OC(=O)Cc2cc(O)cc(O)c2C(=O)C1` (centres undefined) | Es-2 | 12.59 | cytotoxic, single point |
| 24 | `COC1CCCC(C)OC(=O)Cc2cc(O)cc(O)c2C(=O)C1` (centres undefined) | Hek293T; control line for the selectivity index | 15.85 | cytotoxic, partial curve, poor fit |
| 25 | `COC1CCCC(C)OC(=O)Cc2cc(O)cc(O)c2C(=O)C1` (centres undefined) | JEG-3 | 11.22 | cytotoxic, partial curve, poor fit |
| 26 | `CCOC(=O)c1ccnc2cc(C(OCCN3CCCCC3)c3ccccc3Cl)sc12` (centres undefined) | C33A | 39.81 | cytotoxic, single point |
| 27 | `CCOC(=O)c1ccnc2cc(C(OCCN3CCCCC3)c3ccccc3Cl)sc12` (centres undefined) | Es-2 | 39.81 | cytotoxic, single point |
| 28 | `CCOC(=O)c1ccnc2cc(C(OCCN3CCCCC3)c3ccccc3Cl)sc12` (centres undefined) | OV90 | 15.85 | cytotoxic, partial curve, poor fit |
| 29 | `CCOC(=O)c1ccnc2cc(C(OCCN3CCCCC3)c3ccccc3Cl)sc12` (centres undefined) | JEG-3 | 39.81 | cytotoxic, single point |
| 30 | `CCOC(=O)c1ccnc2cc(C(OCCN3CCCCC3)c3ccccc3Cl)sc12` (centres undefined) | CASKI | 31.62 | cytotoxic, single point |
| 31 | `CCOC(=O)c1ccnc2cc(C(OCCN3CCCCC3)c3ccccc3Cl)sc12` (centres undefined) | Hek293T; control line for the selectivity index | 39.81 | cytotoxic, single point |
| 32 | `CCOC(=O)c1ccnc2cc(C(OCCN3CCCCC3)c3ccccc3Cl)sc12` (centres undefined) | HeLa | 39.81 | cytotoxic, single point |

4 of the entries, repeated:

- COc1cc2ncnc(Nc3ccc(F)c(Cl)c3)c2cc1NC(=O)/C=C/CN1CCCCC1 [JEG-3] : fitted potency 39.81 µM (cytotoxic, single point)
- COc1cc2ncnc(Nc3ccc(F)c(Cl)c3)c2cc1NC(=O)/C=C/CN1CCCCC1 [CASKI] : fitted potency 31.62 µM (cytotoxic, single point)
- O=C(O)C(Cl)Cl [Hek293T; control line for the selectivity index] : fitted potency 7.943 µM (rising, single point)
- Nc1ccc(N=Nc2ccccc2)cc1 [Es-2] : fitted potency 35.48 µM (cytotoxic, partial curve, poor fit)